In article PMC3379994, “Comprehensive Analysis of Interactions between the Src-Associated Protein in Mitosis of 68 kDa and the Human Src-Homology 3 Proteome” (PLoS ONE, 2012):
No constants are given. Whether binding was seen depends on the method and setting. For some assays here: In cells and extracts the contact can be indirect. Some results given as binding are weak or reduced against the parent protein; the word gives no strength.

Amino acid sequences for entries named in this document (tags omitted). Residues count along the entry.
UniProt P07947, residues 91-152: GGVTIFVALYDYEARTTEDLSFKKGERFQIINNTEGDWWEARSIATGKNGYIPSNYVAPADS
UniProt P27986, residues 3-79: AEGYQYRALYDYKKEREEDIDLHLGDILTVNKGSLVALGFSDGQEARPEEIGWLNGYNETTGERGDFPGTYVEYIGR
UniProt Q9Y5X1, residues 1-62: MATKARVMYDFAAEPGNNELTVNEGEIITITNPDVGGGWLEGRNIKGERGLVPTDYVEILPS
UniProt P06241, residues 82-143: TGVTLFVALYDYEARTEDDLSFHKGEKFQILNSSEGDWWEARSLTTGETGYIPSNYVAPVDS
UniProt Q96B97, residues 1-58: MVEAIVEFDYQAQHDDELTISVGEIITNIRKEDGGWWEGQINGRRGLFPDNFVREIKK
UniProt P07948, residues 63-123: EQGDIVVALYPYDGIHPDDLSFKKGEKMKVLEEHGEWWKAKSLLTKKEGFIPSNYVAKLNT
UniProt P08631, residues 78-138: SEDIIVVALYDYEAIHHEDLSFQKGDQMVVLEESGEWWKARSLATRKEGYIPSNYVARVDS

How the values were obtained:
[1] = biological target: His-tagged Sam68 (Src-associated in mitosis, 68 kDa) (human (cDNA from HEK293T cells)) (UniProt Q07666); assay: ELISA; only the target purified
[2] = biological target: His-tagged Sam68 (Src-associated in mitosis, 68 kDa) (human (cDNA from HEK293T cells)) (UniProt Q07666); assay: phage display bio-panning; 10 µg His-Sam68 or GST-Sam68 immobilised on magnetic M-270 epoxy beads; human SH3 phage library (296 domains as pVIII fusions), 1 h; 10 washes with PBS + 0.05 % Tween-20; elution at pH 2.2; 162 clones sequenced; only the target purified
[3] = biological target: CFP-tagged Sam68 (human (cDNA from HEK293T cells)) (UniProt Q07666); assay: FRET or BRET; flow-cytometry-based FRET in living 293T cells co-transfected with CFP- and YFP-tagged proteins, analysed 48 h after transfection

Substance: SH3 domain from Yes, displayed on M13 phage (from UniProt P07947 91-152) (domain or fragment)
- binding [1]: binds
- binding [2]: binds

Substance: SH3 domain from p85α, displayed on M13 phage (from UniProt P27986 3-79) (domain or fragment)
- binding [1]: binds
- binding [2]: binds

Substance: SH3 domain from Sorting nexin 9, displayed on M13 phage (from UniProt Q9Y5X1 1-62) (domain or fragment)
- binding [2]: binds

Substance: YFP-tagged SH3 domain of Fyn (from UniProt P06241 82-143) (domain or fragment)
- binding [3]: binds

Substance: SH3 domain #1 from Cbl-interacting 85 kDa protein (CIN85), displayed on M13 phage (from UniProt Q96B97 1-58) (domain or fragment)
- binding [2]: binds

Substance: SH3 domain from Fyn, displayed on M13 phage (from UniProt P06241 82-143) (domain or fragment)
- binding [1]: binds
- binding [2]: binds

Substance: YFP-tagged SH3 domain of p85α (from UniProt P27986 3-79) (domain or fragment)
- binding [3]: binds

Substance: YFP-tagged SH3 domain of Lyn (from UniProt P07948 63-123) (domain or fragment)
- binding [3]: binds

Substance: SH3 domain from Lyn, displayed on M13 phage (from UniProt P07948 63-123) (domain or fragment)
- binding [1]: binds
- binding [2]: binds

Substance: YFP-tagged SH3 domain of Yes (from UniProt P07947 91-152) (domain or fragment)
- binding [3]: binds

Substance: SH3 domain from Hck, displayed on M13 phage (from UniProt P08631 78-138) (domain or fragment)
- binding [1]: binds
- binding [2]: binds

Substance: YFP-tagged SH3 domain of Hck (from UniProt P08631 78-138) (domain or fragment)
- binding [3]: binds
